Experimental data taken from publication PMC10377175.

Protein sequences, listed by entry. Tags and fused reporters are not part of them. Residues count along the entry.
UniProt P02769, 25-607: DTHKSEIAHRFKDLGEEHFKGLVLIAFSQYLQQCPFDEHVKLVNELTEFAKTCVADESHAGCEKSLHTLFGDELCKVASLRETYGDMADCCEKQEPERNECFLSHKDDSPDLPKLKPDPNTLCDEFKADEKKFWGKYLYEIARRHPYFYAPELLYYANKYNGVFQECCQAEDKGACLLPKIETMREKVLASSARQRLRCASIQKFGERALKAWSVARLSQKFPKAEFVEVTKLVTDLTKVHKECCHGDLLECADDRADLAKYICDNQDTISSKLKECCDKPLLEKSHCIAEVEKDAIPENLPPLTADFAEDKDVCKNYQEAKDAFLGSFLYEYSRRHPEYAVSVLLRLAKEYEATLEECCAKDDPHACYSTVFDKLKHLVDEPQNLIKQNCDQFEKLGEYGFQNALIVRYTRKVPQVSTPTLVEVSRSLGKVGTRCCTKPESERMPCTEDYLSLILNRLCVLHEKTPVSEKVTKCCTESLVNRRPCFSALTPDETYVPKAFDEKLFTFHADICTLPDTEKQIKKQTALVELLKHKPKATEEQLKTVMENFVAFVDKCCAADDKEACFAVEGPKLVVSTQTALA

Columns and labels:
[1] = test system: TATA-binding protein (TBP); experiment: electrochemical (E-DNA, square wave voltammetry); details: 200 nM TBP, current change significantly less than with ENOX2 (p<0.0001); internal methylene blue on thymine T21 (printed after ...CATCTTT); 5' disulfide linker reduced to thiol; E-DNA: PBS pH 7.4 (137 mM NaCl, 10 mM Na2HPO4, 1.8 mM KH2PO4, 2.7 mM KCl, 1 mM MgCl2), 10 min equilibration; temperature not stated; recombinant protein; label: methylene blue, 5' thiol on gold electrode; single-stranded DNA
[2] = target: bovine serum albumin (BSA) (Bos taurus) (UniProt P02769); experiment: electrochemical (E-DNA, square wave voltammetry); details: 500 nM BSA, current change significantly less than with ENOX2 (p<0.0001); internal methylene blue on thymine T21 (printed after ...CATCTTT); 5' disulfide linker reduced to thiol; E-DNA: PBS pH 7.4 (137 mM NaCl, 10 mM Na2HPO4, 1.8 mM KH2PO4, 2.7 mM KCl, 1 mM MgCl2), 10 min equilibration; temperature not stated; label: methylene blue, 5' thiol on gold electrode; single-stranded DNA

Sequence: TAAAGATCCCTGTTCATCTTTTCTCGAGTGTTCTTTAGAACAATGAATCTTT [ENOX2 E-DNA biosensor aptamer]
- binding result [1]: binds more weakly
- binding result [2]: binds more weakly

For at least one entry, the source does not settle the construct or the ends of the probe. The comparison behind a weaker result is the experiment's own reference, which may not be listed here.
